The series concerns patients with indolent B cell lymphoma (iNHL). The series is described as follows: Phase IIa study: clinical response (best response) to single agent cerdulatinib in r/r iNHL patients grouped by baseline B cell subsets. Conditions: 30 mg BID. Type of series: in vivo, human. As to the method: This example describes a phase IIa study designed to determine the safety, efficacy, pharmacokinetics, and pharmacodynamics of cerdulatinib at the selected phase II dose of 30 mg BID, dosed in 28 day cycles, in patients with r/r B or T cell malignancies.
Up to 50 patients were enrolled in 5 cohorts; aggressive lymphoma, iNHL, CLL/SLL, PTCL (all receiving single agent cerdulatinib), and iNHL with cerdulatinib in combination with anti-CD20 therapy. Patients remained on drug until discontinuation due to progressive disease (PD), adverse event (AE), withdrawal of consent (WC), or at the discretion of the treating physician.
Forty patients with iNHL were enrolled in a cohort receiving single agent cerdulatinib. From this cohort, 30 ml of whole blood was collected from each patient at pre-dose at baseline (C1), cycle 2 day 1 (C2), cycle 3 day 1 (C3), and cycle 6 day 1 (C6) in 10 ml mononuclear cell protection tubes (CPT tubes, BD Bioscience, San Jose, CA) and immediately centrifuged to separate mononuclear cells from plasma and red blood cells at each clinical site. At each time point, tubes were shipped for same day delivery to Caprion Biosciences, Montreal Canada, for preparation and live cell freezing of peripheral blood mononuclear cells (PBMC) by ficoll gradient centrifugation using standard procedures. Banked PBMC’s were stored at -80° C. until 5-8 patient samples through cycle 6 were obtained to enable batched flow cytometry analysis of B cell subsets for each patient over time.
A PCA analysis of the data was performed to identify subgroups of patients characterized by a common B cell phenotype. Subsequent analysis of the results of the PCA by hierarchical clustering was performed.

Molecules are shown by their SMILES.

Regarding `CCS(=O)(=O)N1CCN(c2ccc(Nc3ncc(C(N)=O)c(NC4CC4)n3)cc2)CC1` [cerdulatinib, 4-(cyclopropylamino)-2-((4-(4-(ethylsulfonyl)piperazin-1-yl)phenyl)amino)pyrimidine-5-carboxamide], the “Best Response RM, percent of patients” value is, setting by setting: (G1 (N=9)) 33.3%; (G2 (N=16)) 12.5%; (G2 + G3 (N=29)) 6.9%; (G3 (N=13)) 0 (0%); (Total (N=38)) 13.2%. For the same molecule, the “Best Response WD_MZL, percent of patients” value (G1 (N=9)) stood at 11.1%; the “Best Response WD_MZL, percent of patients” value (G2 (N=16)) is on record as 0 (0%); the “Best Response WD_MZL, percent of patients” value (G2 + G3 (N=29)) was 0 (0%); the “Best Response WD_MZL, percent of patients” value (G3 (N=13)) is 0 (0%); the “Best Response WD_MZL, percent of patients” value (Total (N=38)) was 2.6%.

The values above are taken from patent US20230181581A1, “CIRCULATING B CELL SUBPOPULATIONS IN INDOLENT B CELL LYMPHOMA” (Alexion Pharmaceuticals, Inc., priority 2020, published 2023).
